Test results from publication doi:10.1101/683508.
These are yes or no findings as the source states them, for the method shown. Binding seen in cells or lysates may run through a third protein. Some results given as binding are weak or reduced against the parent protein; the word gives no strength.

Chains of the proteins cited; added tags and fusions are not shown.
UniProt Q9UHP3: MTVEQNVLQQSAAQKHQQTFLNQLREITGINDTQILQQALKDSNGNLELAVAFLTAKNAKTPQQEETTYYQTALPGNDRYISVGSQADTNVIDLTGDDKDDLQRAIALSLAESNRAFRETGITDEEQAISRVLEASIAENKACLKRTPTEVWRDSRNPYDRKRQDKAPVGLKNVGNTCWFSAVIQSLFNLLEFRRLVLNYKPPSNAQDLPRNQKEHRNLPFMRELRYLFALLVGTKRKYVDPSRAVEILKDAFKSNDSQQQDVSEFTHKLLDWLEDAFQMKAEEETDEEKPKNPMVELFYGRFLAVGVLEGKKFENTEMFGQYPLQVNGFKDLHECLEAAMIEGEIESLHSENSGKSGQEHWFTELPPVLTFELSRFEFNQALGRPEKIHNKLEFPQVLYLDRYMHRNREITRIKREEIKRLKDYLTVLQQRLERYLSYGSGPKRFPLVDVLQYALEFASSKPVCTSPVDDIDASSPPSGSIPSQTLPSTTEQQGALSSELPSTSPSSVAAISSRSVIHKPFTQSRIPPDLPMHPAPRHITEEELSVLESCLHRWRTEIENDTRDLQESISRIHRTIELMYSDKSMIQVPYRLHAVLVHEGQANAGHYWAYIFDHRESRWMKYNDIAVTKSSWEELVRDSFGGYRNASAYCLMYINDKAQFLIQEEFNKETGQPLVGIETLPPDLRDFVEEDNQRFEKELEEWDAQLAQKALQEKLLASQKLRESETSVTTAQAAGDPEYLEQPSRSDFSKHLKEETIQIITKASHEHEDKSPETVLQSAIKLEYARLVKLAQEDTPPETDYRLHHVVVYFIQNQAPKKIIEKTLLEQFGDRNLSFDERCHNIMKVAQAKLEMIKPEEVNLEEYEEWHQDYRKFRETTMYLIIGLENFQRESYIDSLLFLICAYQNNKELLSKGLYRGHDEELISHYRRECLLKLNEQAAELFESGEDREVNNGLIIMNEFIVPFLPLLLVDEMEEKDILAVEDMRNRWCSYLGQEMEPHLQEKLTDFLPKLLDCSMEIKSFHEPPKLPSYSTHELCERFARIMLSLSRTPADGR
UniProt Q96RU2: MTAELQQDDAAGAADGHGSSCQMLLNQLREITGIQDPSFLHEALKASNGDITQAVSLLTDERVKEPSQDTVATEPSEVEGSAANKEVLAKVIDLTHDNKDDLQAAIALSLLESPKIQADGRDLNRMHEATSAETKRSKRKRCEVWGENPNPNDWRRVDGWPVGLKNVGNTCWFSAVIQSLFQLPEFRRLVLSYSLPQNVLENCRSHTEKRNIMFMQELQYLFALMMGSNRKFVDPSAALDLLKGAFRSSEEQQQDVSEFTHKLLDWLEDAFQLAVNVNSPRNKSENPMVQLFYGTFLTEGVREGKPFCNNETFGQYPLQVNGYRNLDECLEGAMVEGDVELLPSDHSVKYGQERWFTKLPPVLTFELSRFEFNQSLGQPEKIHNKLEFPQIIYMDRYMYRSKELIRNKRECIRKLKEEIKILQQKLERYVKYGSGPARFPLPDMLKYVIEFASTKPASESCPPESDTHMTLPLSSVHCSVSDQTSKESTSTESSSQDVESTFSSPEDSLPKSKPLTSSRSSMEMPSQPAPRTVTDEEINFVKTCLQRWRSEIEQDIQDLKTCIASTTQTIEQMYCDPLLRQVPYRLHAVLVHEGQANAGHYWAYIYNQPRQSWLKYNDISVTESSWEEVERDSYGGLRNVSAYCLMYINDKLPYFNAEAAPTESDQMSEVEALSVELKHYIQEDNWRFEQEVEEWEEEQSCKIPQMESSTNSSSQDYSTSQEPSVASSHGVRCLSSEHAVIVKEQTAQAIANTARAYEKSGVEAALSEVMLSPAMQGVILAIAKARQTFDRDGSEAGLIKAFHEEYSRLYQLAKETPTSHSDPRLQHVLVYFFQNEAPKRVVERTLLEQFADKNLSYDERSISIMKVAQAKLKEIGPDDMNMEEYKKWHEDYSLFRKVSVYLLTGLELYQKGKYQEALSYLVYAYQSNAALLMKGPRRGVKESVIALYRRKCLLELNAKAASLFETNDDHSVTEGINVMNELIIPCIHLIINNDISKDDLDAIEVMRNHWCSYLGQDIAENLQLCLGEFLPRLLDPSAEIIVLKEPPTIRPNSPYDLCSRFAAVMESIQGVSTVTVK

T1: endogenous ΔNp63 (human (endogenous in A431)) (UniProt Q9H3D4)
T1 sequence: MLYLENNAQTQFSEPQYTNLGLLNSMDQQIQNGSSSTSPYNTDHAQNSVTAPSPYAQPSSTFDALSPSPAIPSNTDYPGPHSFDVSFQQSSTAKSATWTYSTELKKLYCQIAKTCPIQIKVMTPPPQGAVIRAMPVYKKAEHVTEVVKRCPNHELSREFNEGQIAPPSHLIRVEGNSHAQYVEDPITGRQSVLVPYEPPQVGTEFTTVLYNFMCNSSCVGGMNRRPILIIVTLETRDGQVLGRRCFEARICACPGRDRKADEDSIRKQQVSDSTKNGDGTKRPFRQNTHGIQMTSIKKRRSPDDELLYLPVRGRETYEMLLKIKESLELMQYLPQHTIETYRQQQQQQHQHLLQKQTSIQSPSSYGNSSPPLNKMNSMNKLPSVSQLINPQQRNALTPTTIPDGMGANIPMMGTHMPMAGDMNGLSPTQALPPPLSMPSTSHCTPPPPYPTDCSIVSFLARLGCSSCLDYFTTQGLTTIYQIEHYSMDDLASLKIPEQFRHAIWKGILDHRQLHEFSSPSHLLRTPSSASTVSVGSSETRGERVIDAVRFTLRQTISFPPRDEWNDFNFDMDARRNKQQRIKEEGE

B1: endogenous ΔNp63 (protein, UniProt Q9H3D4-2 1-586)
chain: T1 sequence

Legend:
Test in all cases: co-IP
[1] = biological target: T1, endogenous ΔNp63 (human (endogenous in A431))
[2] = biological target: endogenous USP25 (human (endogenous in A431)) (UniProt Q9UHP3)
[3] = biological target: endogenous USP28 (human (endogenous in A431)) (UniProt Q96RU2)

Molecule	binding [1]	binding [2]	binding [3]
endogenous USP25 (from UniProt Q9UHP3 1-1055) (enzyme)	no binding	–	–
B1	–	no binding	binds
